Reference: publication PMC4250933

Molecular target: T1, 6xHis-tagged Mdf1p (S. cerevisiae) (UniProt P25585)
T1 sequence: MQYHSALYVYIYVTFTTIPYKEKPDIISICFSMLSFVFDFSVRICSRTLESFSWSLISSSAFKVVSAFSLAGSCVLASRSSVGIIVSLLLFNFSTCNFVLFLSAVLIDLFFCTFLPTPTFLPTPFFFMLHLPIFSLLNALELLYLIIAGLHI
Assay: affinity purification with mass spectrometry; lysate of yeast overexpressing 6xHis-tagged Mdf1p precipitated with anti-His antibody and protein-G agarose; SDS-PAGE, silver stain, unique band against wild-type control analysed by MALDI-TOF/TOF; lysis buffer 50 mM Tris-HCl pH 7.5, 150 mM NaCl, 0.2% NP-40, 4°C

B1: Snf1p (protein, UniProt P06782 1-633)
chain: MSSNNNTNTAPANANSSHHHHHHHHHHHHHGHGGSNSTLNNPKSSLADGAHIGNYQIVKTLGEGSFGKVKLAYHTTTGQKVALKIINKKVLAKSDMQGRIEREISYLRLLRHPHIIKLYDVIKSKDEIIMVIEYAGNELFDYIVQRDKMSEQEARRFFQQIISAVEYCHRHKIVHRDLKPENLLLDEHLNVKIADFGLSNIMTDGNFLKTSCGSPNYAAPEVISGKLYAGPEVDVWSCGVILYVMLCRRLPFDDESIPVLFKNISNGVYTLPKFLSPGAAGLIKRMLIVNPLNRISIHEIMQDDWFKVDLPEYLLPPDLKPHPEEENENNDSKKDGSSPDNDEIDDNLVNILSSTMGYEKDEIYESLESSEDTPAFNEIRDAYMLIKENKSLIKDMKANKSVSDELDTFLSQSPPTFQQQSKSHQKSQVDHETAKQHARRMASAITQQRTYHQSPFMDQYKEEDSTVSILPTSLPQIHRANMLAQGSPAASKISPLVTKKSKTRWHFGIRSRSYPLDVMGEIYIALKNLGAEWAKPSEEDLWTIKLRWKYDIGNKTNTNEKIPDLMKMVIQLFQIETNNYLVDFKFDGWESSYGDDTTVSNISEDEMSTFSAYPFLHLTTKLIMELAVNSQSN
binding: binds

These are yes or no findings as the source states them, for the method shown. In cells and extracts the contact can be indirect. Here binding means that the protein was enriched with, or labelled near, the bait; the list need not be complete. Sequences can lack the tags named with a protein.
